Assay results: PubChem BioAssay (EPA / NIEHS)
Inconclusive results, whose numbers are uncertain, are shown with a selection of clear calls. Potencies beside an inconclusive call are fits to weak or partial responses and may not hold up. Active and inactive are the calls of the source. How the source made its calls: active means hit-call score of the fitted dose curve at least 0.9, where 1 is the maximum; inconclusive means response in the unintended direction; inactive means score below 0.9.

The chains behind the UniProt entries cited, without tags or fusion partners. Where a name states a change or a piece, a line headed by the entry shows the natural chain unless it says otherwise.
UniProt Q96EB6: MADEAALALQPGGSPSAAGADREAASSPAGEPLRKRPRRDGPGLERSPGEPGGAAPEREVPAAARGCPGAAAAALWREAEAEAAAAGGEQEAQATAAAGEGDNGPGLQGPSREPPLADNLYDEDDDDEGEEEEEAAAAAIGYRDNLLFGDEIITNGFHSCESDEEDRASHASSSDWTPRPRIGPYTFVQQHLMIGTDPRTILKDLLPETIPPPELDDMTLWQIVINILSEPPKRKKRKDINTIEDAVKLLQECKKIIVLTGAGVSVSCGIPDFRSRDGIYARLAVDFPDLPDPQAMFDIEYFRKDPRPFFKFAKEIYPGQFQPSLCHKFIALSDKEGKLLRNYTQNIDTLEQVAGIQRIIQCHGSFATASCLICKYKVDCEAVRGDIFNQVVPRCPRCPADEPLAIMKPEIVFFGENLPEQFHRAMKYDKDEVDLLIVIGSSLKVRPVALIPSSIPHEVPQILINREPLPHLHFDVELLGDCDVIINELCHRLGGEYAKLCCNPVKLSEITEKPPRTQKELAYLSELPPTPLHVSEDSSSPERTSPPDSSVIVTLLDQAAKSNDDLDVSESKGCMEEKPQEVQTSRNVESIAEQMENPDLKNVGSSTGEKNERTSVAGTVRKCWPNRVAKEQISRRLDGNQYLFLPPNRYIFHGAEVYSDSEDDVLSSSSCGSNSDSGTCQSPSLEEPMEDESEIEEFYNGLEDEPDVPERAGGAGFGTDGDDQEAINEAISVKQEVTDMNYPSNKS

Each compound was assayed against human Sirtuin 1 (SIRT1), SIRT1 (gene 23411) (UniProt Q96EB6) (assay: NVS_ENZ_hSIRT1: NovaScreen (NVS) Enzymatic Assay for human Sirtuin 1 (SIRT1) (AID 2283219)).
Method: NVS_ENZ_hSIRT1 is a biochemical, single-readout assay that uses extracted gene-proteins in a cell-free assay. Measurements were taken 1 hour after chemical dosing in a 384-well plate.NVS_ENZ_hSIRT1 is one of one assay component(s) measured or calculated from the NVS_ENZ_hSIRT1 assay. It is designed to make measurements of enzyme activity, a form of enzyme reporter, as detected with fluorescence intensity signals by Fluorescence and electrophoretic mobility shift technology.Data from the assay component NVS_ENZ_hSIRT1 was analyzed into 1 assay endpoint. This assay endpoint, NVS_ENZ_hSIRT1, was analyzed in the positive analysis fitting direction relative to DMSO as the negative control and baseline of activity. Using a type of enzyme reporter, loss-of-signal activity can be used to understand changes in the enzymatic activity as they relate to the gene SIRT1. Furthermore, this assay endpoint can be referred to as a primary readout, because this assay has produced multiple assay endpoints where this one serves a enzymatic activity function. To generalize the intended target to other relatable targets, this assay endpoint is annotated to the hydrolase intended target family, where the subfamily is protein deacetylase.
Binding assays used specific radioligands (tritiated, iodinated) with non-radioactive competitive displacement ligands in agonist or antagonist protocols (as indicated) and various reference compounds and inhibitors to titrate specific binding to receptors and transporters. Most enzyme assays (CYPs, kinases, phosphatases, proteases, HDACs) used recombinant protein and specific substrates (fluorescence mostly, some colorimetric and radioactive) and inhibitors, followed by a biochemical separation of substrate and product. All assays for the biochemical HTS were initially run in duplicate at a single concentration (10 uM for CYP450 assays and 25 uM for all others). Assay-chemical combinations meeting a pre-defined threshold (e.g., 30% inhibition and other criteria defined below) were then run in singleton concentration-response format with maximum concentration of 20 uM for CYPs and 50 uM for all others. Each assay was run with positive and negative controls, and concurrent controls on every plate. The follow-up (secondary) screen tested active chemical-pairs in concentration series, as well as a few additional assays not tested in the primary screen, some selected negative inactives, and several cases re-run in the concentration series for confirmatory purposes.
With `CSC(C)(C)C=NO` the outcome was “inactive”. With `CC1=C2C[C@H]3[C@@H](CC=C4C[C@@H](O)CC[C@@]43C)[C@@H]2CC[C@]12O[C@@H]1C[C@H](C)CN[C@H]1[C@H]2C` the AC50 was inconclusive: 2.57 µM. With `O=[N+]([O-])c1ccc(Cl)c(Cl)c1` the AC50 was inconclusive: 1.09 µM. With `N#Cc1cccnc1` the AC50 was inconclusive: 1.35 µM. In the case of `ClC1(Cl)C2(Cl)C3(Cl)C4(Cl)C(Cl)(Cl)C5(Cl)C3(Cl)C1(Cl)C5(Cl)C24Cl` (stereo not drawn), the AC50 is reported as inconclusive: 25 µM. `CN(C)c1nc(=O)n(C2CCCCC2)c(=O)n1C` was tested, and the AC50 was inconclusive: 25 µM. For `O=S(=O)(O)C(F)(F)C(F)(F)C(F)(F)C(F)(F)C(F)(F)C(F)(F)F`, the outcome was “inactive”. With `COP(=O)(OC)OC(Br)C(Cl)(Cl)Br` (stereo not drawn) the AC50 was active: 15.8 µM. `C[C@]12CCC(=O)C=C1CC[C@@H]1[C@@H]2CC[C@]2(C)C(=O)CC[C@@H]12` was tested, and the AC50 was inconclusive: 25 µM. For `O=C(Nc1ccc2[nH]ccc2c1)c1cc2cc(F)ccc2n1Cc1cccc(F)c1`, the AC50 was inconclusive: 0.239 µM. For `CN(C)C(=S)SSC(=S)N(C)C`, the AC50 was active: 6.68 µM. In the case of `CCCN(CCC)c1c([N+](=O)[O-])cc(S(N)(=O)=O)cc1[N+](=O)[O-]`, the AC50 is reported as inconclusive: 26.4 µM. For `CC[C@H](C)[C@H]1O[C@]2(C=C[C@@H]1C)C[C@@H]1C[C@@H](C/C=C(\C)[C@@H](O[C@H]3C[C@H](OC)[C@@H](O[C@H]4C[C@H](OC)[C@@H](O)[C@H](C)O4)[C@H](C)O3)[C@@H](C)/C=C/C=C3\CO[C@@H]4[C@H](O)C(C)=C[C@@H](C(=O)O1)[C@]34O)O2` (tested in a mixture with another compound), the AC50 was active: 17.2 µM.
